Laboratory results: PubChem BioAssay AID686938 (Drosophila RNAi Screening Center, 2013)

- Aim: 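Knock-downs reducing store-operated calcium influx in Drosophila cells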 (primary screen)
- System: Drosophila S2R+ cells
- Reagents: long dsRNA against Drosophila genes, about 0.25 µg dsRNA per well, roughly 10,000 cells
- Timing: 5 days of knock-down before the calcium assay
- Treatment: thapsigargin (SERCA pump blocker) to empty calcium stores; entry signal taken 4 min after adding it
- Read-out: 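Duplicate raw fluo-4 intensities per well from a plate reader, at rest and four minutes after thapsigargin emptied calcium stores; entry-to-rest ratio filled for only some wells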
- Scale: calcium entry signal: higher = stronger calcium signal after store depletion; resting calcium signal: higher = higher resting calcium signal
- Call rule: 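Called when the plate z-score of the entry-to-rest ratio, mean of duplicates, falls below −3; wells with low overall dye signal (Fmax z below −2) or more than five off-targets excluded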
- Calls: active = strongly reduced calcium entry; inactive = no strong reduction
The screen tested about 23,000 reagents; this is a random part of those that have a named target and a result. In the full data, 75 (0.33%) got an active call. 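Raw plate signals without normalisation; calls rest on plate z-scores that were not deposited; ratio present for only 364 wells.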 A plus sign joins genes that one reagent is predicted to hit. Not given: the dose of the treatment.

The first 2 entries, ahead of the listing:
no.	predicted target	DRSC id	calcium entry signal, replicate 1 (fluorescence units)	calcium entry signal, replicate 2 (fluorescence units)	resting calcium signal, replicate 1 (fluorescence units)	resting calcium signal, replicate 2 (fluorescence units)	Call
1	CG34171 (GeneID 5740474)	DRSC01637	3.40e7	3.02e7	1.83e7	1.59e7	inactive
2	Xpc (GeneID 36697)	DRSC07654	2.59e7	2.17e7	1.12e7	1.05e7	inactive

Main list, from the start:
no.	predicted target	DRSC id	calcium entry signal, replicate 1 (fluorescence units)	calcium entry signal, replicate 2 (fluorescence units)	resting calcium signal, replicate 1 (fluorescence units)	resting calcium signal, replicate 2 (fluorescence units)	Call
1	CG34171 (GeneID 5740474)	DRSC01637	3.40e7	3.02e7	1.83e7	1.59e7	inactive
2	Xpc (GeneID 36697)	DRSC07654	2.59e7	2.17e7	1.12e7	1.05e7	inactive
3	CG13737 (GeneID 39531)	DRSC10064	3.52e7	3.48e7	1.70e7	1.51e7	inactive
4	CG43327 + CG43328	DRSC05640	3.13e7	3.51e7	1.42e7	1.75e7	inactive
5	Arc1 (GeneID 36595)	DRSC06159	3.26e7	7.06e7	1.43e7	3.06e7	inactive
6	RpL9 (GeneID 34526)	DRSC03418	1.28e7	1.45e7	8.73e6	9.37e6	inactive
7	CR33013 (GeneID 14462581)	DRSC06286	2.67e7	4.52e7	1.37e7	1.86e7	inactive
8	Ir75a (GeneID 39982)	DRSC10188	3.33e7	4.82e7	1.77e7	2.14e7	inactive
9	flw (GeneID 44289)	DRSC17992	2.33e7	3.21e7	1.17e7	1.58e7	inactive
10	flw (GeneID 44289)	DRSC18774	1.92e7	2.25e7	1.05e7	1.11e7	inactive
11	CG10205 (GeneID 36650)	DRSC05979	2.61e7	2.52e7	1.44e7	1.43e7	inactive
12	CG5390 (GeneID 34383)	DRSC02855	3.14e7	4.20e7	1.52e7	1.77e7	inactive
13	Dys (GeneID 42327)	DRSC13360	3.62e7	2.88e7	1.60e7	1.28e7	inactive
14	Dys (GeneID 42327)	DRSC13364	4.63e7	3.30e7	2.62e7	1.57e7	inactive
15	Dys (GeneID 42327)	DRSC15260	4.15e7	3.92e7	5.98e7	1.76e7	inactive
16	Dys (GeneID 42327)	DRSC16218	4.30e7	5.51e7	6.18e7	2.40e7	inactive
17	Dys (GeneID 42327)	DRSC16219	3.89e7	4.95e7	5.61e7	2.15e7	inactive
18	Dys (GeneID 42327)	DRSC16220	4.05e7	4.97e7	4.42e7	2.18e7	inactive
19	Dys (GeneID 42327)	DRSC16935	4.05e7	5.08e7	6.07e7	2.23e7	inactive
20	CG9500 (GeneID 33888)	DRSC03237	3.87e7	3.97e7	2.07e7	1.82e7	inactive
21	CG13151 (GeneID 36374)	DRSC06276	3.10e7	3.59e7	1.69e7	1.71e7	inactive
22	mud (GeneID 44839)	DRSC19019	2.62e7	5.23e7	1.49e7	2.92e7	inactive
23	Uch-L5R (GeneID 32173)	DRSC19825	3.86e7	5.58e7	1.94e7	2.69e7	inactive
24	Nacalpha (GeneID 36409)	DRSC07477	2.47e7	3.45e7	1.46e7	1.91e7	inactive
25	Not10 (GeneID 41552)	DRSC14129	4.13e7	5.11e7	1.74e7	2.15e7	inactive
26	kin17 (GeneID 40242)	DRSC11890	2.03e7	3.11e7	9.61e6	1.48e7	inactive
27	NaCP60E (GeneID 37981)	DRSC04307	2.75e7		1.30e7		inactive
28	NaCP60E (GeneID 37981)	DRSC21351	3.08e7	3.51e7	1.71e7	1.57e7	inactive
29	ND-B17.2 (GeneID 33443)	DRSC00577	4.52e7	4.65e7	2.06e7	2.12e7	inactive
30	CG3036 (GeneID 33695)	DRSC00260	3.75e7	3.43e7	2.01e7	1.65e7	inactive
31	CG3036 (GeneID 33695)	DRSC00562	3.52e7		1.63e7		inactive
32	CG15478 (GeneID 31679)	DRSC18057	4.46e7	4.17e7	1.97e7	1.86e7	inactive
33	Spn75F (GeneID 317912)	DRSC09589	3.08e7	2.94e7	1.40e7	1.47e7	inactive
34	Bx (GeneID 32846)	DRSC19350	3.69e7	2.59e7	2.07e7	1.43e7	inactive
35	Bx (GeneID 32846)	DRSC19624	3.73e7	3.16e7	1.80e7	1.50e7	inactive
36	Bx (GeneID 32846)	DRSC23048	2.64e7	2.72e7	1.21e7	1.29e7	inactive
37	CG30075 (GeneID 246437)	DRSC05484	4.90e7	4.83e7	2.69e7	2.04e7	inactive
38	dgt1 (GeneID 43529)	DRSC15301	4.18e7	4.35e7	2.47e7	2.37e7	inactive
39	I-2 (GeneID 39156)	DRSC11194	1.96e7	2.92e7	1.15e7	1.36e7	inactive
40	I-2 (GeneID 39156)	DRSC23300	3.64e7	3.18e7	1.60e7	1.43e7	inactive
41	CG17440 (GeneID 31879)	DRSC18126	3.51e7	4.55e7	1.90e7	2.20e7	inactive
42	AstA-R1 (GeneID 44126)	DRSC17278	4.67e7	3.16e7	2.12e7	1.32e7	inactive
43	AstA-R1 (GeneID 44126)	DRSC17727	2.20e7	3.44e7	1.14e7	1.60e7	inactive
44	Smn (GeneID 39844)	DRSC10223	2.51e7	3.84e7	1.23e7	2.72e7	inactive
45	ssp7 (GeneID 318146)	DRSC18878	3.58e7	3.02e7	1.79e7	1.61e7	inactive
46	CG12091 (GeneID 38177)	DRSC08251	3.46e7	3.81e7	1.73e7	1.79e7	inactive
47	CG34230 (GeneID 5740558)	DRSC05317	5.07e7	2.59e7	2.60e7	1.20e7	inactive
48	rno (GeneID 38027)	DRSC08584	3.76e7	5.01e7	1.86e7	2.39e7	inactive
49	CG32603 (GeneID 318109)	DRSC19409	3.27e7	2.90e7	1.58e7	1.29e7	inactive
50	CG32603 (GeneID 318109)	DRSC21586	3.35e7	2.68e7	1.69e7	1.23e7	inactive
51	Gem2 (GeneID 40087)	DRSC09721	4.11e7	5.04e7	1.83e7	3.28e7	inactive
52	Acbp1 (GeneID 34111)	DRSC03093	3.01e7	4.91e7	1.49e7	2.00e7	inactive
53	Edg84A (GeneID 40818)	DRSC12594	3.92e7	2.92e7	1.81e7	1.45e7	inactive
54	CG15306 (GeneID 31961)	DRSC17993	2.20e7	4.31e7	1.09e7	1.80e7	inactive
55	CG15306 (GeneID 31961)	DRSC18240	2.15e7	5.38e7	1.15e7	3.07e7	inactive
56	foxo (GeneID 41709)	DRSC13017	3.45e7	4.27e7	2.10e7	2.36e7	inactive
57	foxo (GeneID 41709)	DRSC15463	2.87e7	3.06e7	1.30e7	1.51e7	inactive
58	Cyp6a2 (GeneID 35587)	DRSC05014	3.73e7	4.99e7	1.76e7	2.21e7	inactive
